# Some of the results follow.
# Amino acid sequences for entries named in this document (tags omitted). A change or cut given only in a name is not applied to a line headed by its entry.
# UniProt Q9BXS4: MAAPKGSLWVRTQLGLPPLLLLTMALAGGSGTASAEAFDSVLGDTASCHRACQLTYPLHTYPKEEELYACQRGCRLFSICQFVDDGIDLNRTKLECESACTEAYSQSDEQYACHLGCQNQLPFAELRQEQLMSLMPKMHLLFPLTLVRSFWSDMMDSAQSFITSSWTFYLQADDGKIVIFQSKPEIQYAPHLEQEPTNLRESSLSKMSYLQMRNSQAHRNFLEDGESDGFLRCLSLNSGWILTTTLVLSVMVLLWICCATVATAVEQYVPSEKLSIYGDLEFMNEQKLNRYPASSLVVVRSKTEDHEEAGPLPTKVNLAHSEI
# UniProt O95271: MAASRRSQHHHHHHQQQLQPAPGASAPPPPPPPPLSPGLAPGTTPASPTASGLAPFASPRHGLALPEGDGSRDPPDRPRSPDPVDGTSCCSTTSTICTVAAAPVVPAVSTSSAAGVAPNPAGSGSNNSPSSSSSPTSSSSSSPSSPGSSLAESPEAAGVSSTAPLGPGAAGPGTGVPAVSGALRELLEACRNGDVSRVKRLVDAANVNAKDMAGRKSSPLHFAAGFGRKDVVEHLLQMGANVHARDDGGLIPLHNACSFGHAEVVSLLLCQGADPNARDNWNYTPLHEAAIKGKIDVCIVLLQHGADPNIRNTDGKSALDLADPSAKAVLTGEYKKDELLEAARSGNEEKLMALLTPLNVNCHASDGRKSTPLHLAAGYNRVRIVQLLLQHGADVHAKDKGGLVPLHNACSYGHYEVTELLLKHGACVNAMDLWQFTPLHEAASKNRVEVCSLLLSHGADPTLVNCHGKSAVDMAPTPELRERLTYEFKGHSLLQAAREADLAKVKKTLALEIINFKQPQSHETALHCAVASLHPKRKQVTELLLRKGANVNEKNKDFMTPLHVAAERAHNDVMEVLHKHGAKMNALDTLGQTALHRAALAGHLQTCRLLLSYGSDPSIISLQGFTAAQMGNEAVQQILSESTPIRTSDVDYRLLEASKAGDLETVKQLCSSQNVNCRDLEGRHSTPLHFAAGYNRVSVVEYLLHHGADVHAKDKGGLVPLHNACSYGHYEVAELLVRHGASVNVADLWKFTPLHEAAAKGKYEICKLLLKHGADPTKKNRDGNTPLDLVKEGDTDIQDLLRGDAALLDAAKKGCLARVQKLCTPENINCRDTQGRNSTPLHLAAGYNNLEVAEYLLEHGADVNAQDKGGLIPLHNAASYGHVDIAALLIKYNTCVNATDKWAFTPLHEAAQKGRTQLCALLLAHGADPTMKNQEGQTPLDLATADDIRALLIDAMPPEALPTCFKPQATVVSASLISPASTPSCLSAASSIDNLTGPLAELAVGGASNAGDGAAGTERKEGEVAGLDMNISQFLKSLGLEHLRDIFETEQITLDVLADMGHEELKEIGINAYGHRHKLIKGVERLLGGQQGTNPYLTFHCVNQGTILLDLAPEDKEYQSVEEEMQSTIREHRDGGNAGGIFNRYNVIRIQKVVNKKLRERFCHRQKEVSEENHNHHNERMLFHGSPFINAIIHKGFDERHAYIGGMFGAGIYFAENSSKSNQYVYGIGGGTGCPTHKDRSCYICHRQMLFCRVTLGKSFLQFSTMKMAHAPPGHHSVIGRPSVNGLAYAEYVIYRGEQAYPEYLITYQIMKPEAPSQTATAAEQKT
# UniProt Q8N2U0: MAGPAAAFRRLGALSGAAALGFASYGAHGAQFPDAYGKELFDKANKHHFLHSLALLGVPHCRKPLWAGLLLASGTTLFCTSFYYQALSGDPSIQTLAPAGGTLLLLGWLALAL
# UniProt Q0VDI3: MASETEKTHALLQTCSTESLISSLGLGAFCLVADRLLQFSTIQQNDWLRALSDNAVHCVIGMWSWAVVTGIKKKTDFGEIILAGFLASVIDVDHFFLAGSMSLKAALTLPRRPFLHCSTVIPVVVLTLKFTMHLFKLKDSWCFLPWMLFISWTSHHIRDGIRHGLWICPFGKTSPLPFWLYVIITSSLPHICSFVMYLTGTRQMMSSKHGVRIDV
# UniProt P02585, whole entry, looked up: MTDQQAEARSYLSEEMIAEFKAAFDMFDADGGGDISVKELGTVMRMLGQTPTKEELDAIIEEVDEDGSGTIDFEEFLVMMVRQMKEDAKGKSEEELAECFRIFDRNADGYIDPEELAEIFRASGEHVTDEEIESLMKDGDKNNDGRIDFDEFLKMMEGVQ
# UniProt Q8NCS4: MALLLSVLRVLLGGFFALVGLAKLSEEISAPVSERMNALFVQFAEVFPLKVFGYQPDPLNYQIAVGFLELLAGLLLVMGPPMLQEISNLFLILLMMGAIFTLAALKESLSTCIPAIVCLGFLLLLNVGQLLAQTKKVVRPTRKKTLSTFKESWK
# UniProt Q9H1E5: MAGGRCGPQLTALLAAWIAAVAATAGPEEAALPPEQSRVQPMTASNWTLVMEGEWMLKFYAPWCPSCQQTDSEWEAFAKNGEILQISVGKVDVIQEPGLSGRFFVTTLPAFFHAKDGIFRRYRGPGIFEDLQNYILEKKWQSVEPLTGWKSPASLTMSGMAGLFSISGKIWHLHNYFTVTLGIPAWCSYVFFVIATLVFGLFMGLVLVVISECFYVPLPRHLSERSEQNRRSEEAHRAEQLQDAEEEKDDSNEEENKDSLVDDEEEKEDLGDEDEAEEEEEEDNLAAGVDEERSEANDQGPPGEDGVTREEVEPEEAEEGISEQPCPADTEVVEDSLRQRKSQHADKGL
# UniProt Q5T292: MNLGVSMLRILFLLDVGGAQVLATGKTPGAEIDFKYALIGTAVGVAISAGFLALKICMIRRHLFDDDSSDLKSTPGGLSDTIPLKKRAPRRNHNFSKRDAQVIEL
# UniProt Q96HH6: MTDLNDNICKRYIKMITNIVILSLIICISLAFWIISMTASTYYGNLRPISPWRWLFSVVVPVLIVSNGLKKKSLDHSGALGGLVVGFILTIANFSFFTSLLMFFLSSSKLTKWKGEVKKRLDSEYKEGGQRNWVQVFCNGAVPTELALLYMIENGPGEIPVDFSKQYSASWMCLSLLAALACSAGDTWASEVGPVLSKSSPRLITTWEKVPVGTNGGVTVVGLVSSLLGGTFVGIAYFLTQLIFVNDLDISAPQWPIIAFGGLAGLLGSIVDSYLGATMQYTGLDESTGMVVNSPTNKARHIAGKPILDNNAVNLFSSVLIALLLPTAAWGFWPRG
# UniProt Q86W33: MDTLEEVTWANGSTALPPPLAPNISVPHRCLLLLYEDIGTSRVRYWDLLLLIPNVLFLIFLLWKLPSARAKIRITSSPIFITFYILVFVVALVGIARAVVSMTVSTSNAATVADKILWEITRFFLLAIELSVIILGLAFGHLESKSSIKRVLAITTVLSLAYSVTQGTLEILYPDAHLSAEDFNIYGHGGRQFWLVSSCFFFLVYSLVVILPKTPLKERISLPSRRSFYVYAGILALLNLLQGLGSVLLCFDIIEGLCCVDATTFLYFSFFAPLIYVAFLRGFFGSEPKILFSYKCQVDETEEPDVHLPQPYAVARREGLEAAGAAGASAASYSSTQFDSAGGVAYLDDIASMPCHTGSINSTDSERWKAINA
# UniProt P55327: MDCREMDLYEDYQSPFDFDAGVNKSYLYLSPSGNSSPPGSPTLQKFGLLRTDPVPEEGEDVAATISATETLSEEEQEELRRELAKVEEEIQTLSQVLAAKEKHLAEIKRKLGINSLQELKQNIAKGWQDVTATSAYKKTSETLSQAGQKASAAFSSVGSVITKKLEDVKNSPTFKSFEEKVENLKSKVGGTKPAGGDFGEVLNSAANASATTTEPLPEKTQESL
# UniProt O95807: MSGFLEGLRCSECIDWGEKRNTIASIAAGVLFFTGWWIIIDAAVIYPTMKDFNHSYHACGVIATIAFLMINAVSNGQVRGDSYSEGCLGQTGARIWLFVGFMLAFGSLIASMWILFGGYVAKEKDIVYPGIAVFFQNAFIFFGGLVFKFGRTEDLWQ
# UniProt Q07912: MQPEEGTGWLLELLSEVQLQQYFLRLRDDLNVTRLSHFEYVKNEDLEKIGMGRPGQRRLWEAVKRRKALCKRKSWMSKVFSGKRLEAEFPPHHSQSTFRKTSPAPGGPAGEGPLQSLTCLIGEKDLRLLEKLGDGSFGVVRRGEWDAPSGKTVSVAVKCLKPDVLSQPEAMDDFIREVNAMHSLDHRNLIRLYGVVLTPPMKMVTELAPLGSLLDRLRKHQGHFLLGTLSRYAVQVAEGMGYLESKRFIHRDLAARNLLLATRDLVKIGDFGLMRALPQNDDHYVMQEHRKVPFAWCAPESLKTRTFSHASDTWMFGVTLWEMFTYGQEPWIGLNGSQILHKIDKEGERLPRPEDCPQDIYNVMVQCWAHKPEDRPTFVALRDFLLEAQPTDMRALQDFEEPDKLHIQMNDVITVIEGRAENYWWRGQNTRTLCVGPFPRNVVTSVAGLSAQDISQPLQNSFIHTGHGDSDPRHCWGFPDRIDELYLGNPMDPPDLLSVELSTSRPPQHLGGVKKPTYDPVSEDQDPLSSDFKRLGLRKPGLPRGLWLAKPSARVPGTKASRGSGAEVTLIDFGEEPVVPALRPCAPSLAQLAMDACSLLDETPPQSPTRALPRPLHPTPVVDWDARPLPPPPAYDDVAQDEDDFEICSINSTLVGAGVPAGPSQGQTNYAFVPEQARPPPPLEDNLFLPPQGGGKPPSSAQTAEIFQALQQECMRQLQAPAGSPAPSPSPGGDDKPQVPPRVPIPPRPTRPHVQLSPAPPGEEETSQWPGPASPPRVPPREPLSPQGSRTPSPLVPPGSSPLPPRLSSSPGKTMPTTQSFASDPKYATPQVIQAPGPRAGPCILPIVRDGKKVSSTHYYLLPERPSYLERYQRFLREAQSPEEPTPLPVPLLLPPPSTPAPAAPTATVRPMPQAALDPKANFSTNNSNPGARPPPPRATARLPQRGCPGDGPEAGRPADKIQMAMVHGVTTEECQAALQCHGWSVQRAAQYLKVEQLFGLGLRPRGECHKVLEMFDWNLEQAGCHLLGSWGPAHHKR
# What was measured:
# Assay in all cases: log2 fold change, soluble protein after heating vs DMSO (PISA); higher = thermal stabilisation; K562 lysate, 10 uM; active = over 0.2 and 3.5 SD of the protein, either way, in both replicates (recomputed)
# [1] = compound: C[C@H](C1=CC=C(C=C1)C(=O)NC2=C3C=CNC3=NC=C2)N
# Outline: (§1)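 A 30 min treatment with 10 μM compound was applied to crude K562 extract at 1 mg/mL protein in PBS pH 7.4 with 1 mM MgCl2. Heating for 3 min spanned 48°C-58°C, after which aliquots were pooled, adjusted to 0.5% NP-40 at 4°C and spun at 21,000xg for 90 min. TMTpro 16plex LC-MS/MS of the supernatant, with channel sums equalised, gave values recorded as log-two fold change in thermal stability against solvent controls, from duplicates.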
# gandotinib = compound: Cc1cc(Nc2cc(CN3CCOCC3)c3nc(C)c(Cc4ccc(Cl)cc4F)n3n2)n[nH]1 [gandotinib]
# Outline: as §1
# [2] = compound: Cc1cccc(CC(=O)N2CCc3c2ccc(-c2cn(C)c4ncnc(N)c24)c3F)n1
# Outline: as §1
# lapatinib = compound: CS(=O)(=O)CCNCc1ccc(-c2ccc3ncnc(Nc4ccc(OCc5cccc(F)c5)c(Cl)c4)c3c2)o1 [lapatinib]
# Outline: as §1
# crizotinib = compound: C[C@@H](Oc1cc(-c2cnn(C3CCNCC3)c2)cnc1N)c1c(Cl)ccc(F)c1Cl [crizotinib]
# Outline: as §1
# duvelisib = compound: C[C@H](Nc1ncnc2nc[nH]c12)c1cc2cccc(Cl)c2c(=O)n1-c1ccccc1 [duvelisib]
# Outline: as §1
# tozasertib = compound: Cc1cc(Nc2cc(N3CCN(C)CC3)nc(Sc3ccc(NC(=O)C4CC4)cc3)n2)n[nH]1 [tozasertib]
# Outline: as §1
# doramapimod = compound: Cc1ccc(-n2nc(C(C)(C)C)cc2NC(=O)Nc2ccc(OCCN3CCOCC3)c3ccccc23)cc1 [doramapimod]
# Outline: as §1
# nilotinib = compound: Cc1cn(-c2cc(NC(=O)c3ccc(C)c(Nc4nccc(-c5cccnc5)n4)c3)cc(C(F)(F)F)c2)cn1 [nilotinib]
# Outline: as §1
# [3] = compound: Cc1nc(Nc2n[nH]c3c2CN(C(=O)N[C@H](CN(C)C)c2ccccc2)C3(C)C)c2sccc2n1
# Outline: as §1
# dasatinib = compound: Cc1nc(Nc2ncc(C(=O)Nc3c(C)cccc3Cl)s2)cc(N2CCN(CCO)CC2)n1 [dasatinib]
# Outline: as §1
# [4] = compound: Cc1ncc(-c2ccnc(Nc3ccc(S(C)(=O)=O)cc3)n2)n1C(C)C
# Outline: as §1
# [5] = compound: Cn1cc(-c2ccc3c(c2)CCN3C(=O)Cc2cccc(C(F)(F)F)c2)c2c(N)ncnc21
# Outline: as §1
# quisinostat = compound: Cn1cc(CNCC2CCN(c3ncc(C(=O)NO)cn3)CC2)c2ccccc21 [quisinostat]
# Outline: as §1
# tipifarnib = compound: Cn1cncc1[C@@](N)(c1ccc(Cl)cc1)c1ccc2c(c1)c(-c1cccc(Cl)c1)cc(=O)n2C [tipifarnib]
# Outline: as §1
# [6] = compound: NC(=O)Nc1cc(-c2cccc(F)c2)sc1C(=O)N[C@H]1CCCNC1
# Outline: as §1
# [7] = compound: NC(=O)c1cnc(N[C@@H]2CCCC[C@@H]2N)nc1Nc1cccc(-n2nccn2)c1
# Outline: as §1
# [8] = compound: NC1(c2ccc(-c3nc4ccn5c(=O)[nH]nc5c4cc3-c3ccccc3)cc2)CCC1
# Outline: as §1
# pictilisib = compound: CS(=O)(=O)N1CCN(Cc2cc3nc(-c4cccc5[nH]ncc45)nc(N4CCOCC4)c3s2)CC1 [pictilisib]
# Outline: as §1
# bafetinib = compound: Cc1ccc(NC(=O)c2ccc(CN3CC[C@H](N(C)C)C3)c(C(F)(F)F)c2)cc1Nc1nccc(-c2cncnc2)n1 [bafetinib]
# Outline: as §1
target,measurement,setting,value
TMEM59 (UniProt Q9BXS4),log2 fold change,[1],inactive: 0.036
same,log2 fold change,gandotinib,inactive: 0.021
same,log2 fold change,[2],inactive: -0.027
TNKS (UniProt O95271),log2 fold change,lapatinib,inactive: -0.085
same,log2 fold change,crizotinib,inactive: -0.031
same,log2 fold change,[1],active: -0.302
same,log2 fold change,duvelisib,inactive: -0.027
same,log2 fold change,gandotinib,inactive: 0.038
same,log2 fold change,tozasertib,inactive: 0.073
same,log2 fold change,doramapimod,inactive: -0.013
same,log2 fold change,[2],inactive: 0.107
same,log2 fold change,nilotinib,inactive: -0.053
same,log2 fold change,[3],inactive: -0.016
same,log2 fold change,dasatinib,inactive: 0.081
same,log2 fold change,[4],inactive: 0.04
same,log2 fold change,[5],inactive: -0.051
same,log2 fold change,quisinostat,inactive: -0.021
same,log2 fold change,tipifarnib,inactive: 0.103
same,log2 fold change,[6],inactive: 0.032
same,log2 fold change,[7],inactive: 0.088
same,log2 fold change,[8],inactive: 0.028
TMEM256 (UniProt Q8N2U0),log2 fold change,lapatinib,inactive: 0.007
same,log2 fold change,duvelisib,inactive: -0.147
same,log2 fold change,tozasertib,inactive: 0.066
same,log2 fold change,dasatinib,inactive: -0.046
same,log2 fold change,[5],inactive: 0.045
same,log2 fold change,[7],inactive: -0.026
TMEM267 (UniProt Q0VDI3),log2 fold change,pictilisib,inactive: -0.063
same,log2 fold change,crizotinib,inactive: 0.017
same,log2 fold change,[1],inactive: -0.013
same,log2 fold change,gandotinib,inactive: 0.251
same,log2 fold change,doramapimod,inactive: 0.144
same,log2 fold change,bafetinib,inactive: 0.019
same,log2 fold change,[2],inactive: 0
same,log2 fold change,nilotinib,inactive: 0.184
same,log2 fold change,[3],inactive: 0.196
same,log2 fold change,[4],inactive: -0.105
same,log2 fold change,quisinostat,inactive: -0.246
same,log2 fold change,tipifarnib,inactive: 0
same,log2 fold change,[6],inactive: -0.269
same,log2 fold change,[8],inactive: -0.104
TNNC2 (UniProt P02585),log2 fold change,lapatinib,inactive: 0.018
same,log2 fold change,crizotinib,inactive: 0.099
same,log2 fold change,[1],inactive: -0.181
same,log2 fold change,duvelisib,inactive: -0.009
same,log2 fold change,gandotinib,inactive: -0.004
same,log2 fold change,tozasertib,inactive: 0.011
same,log2 fold change,doramapimod,inactive: -0.038
same,log2 fold change,[2],inactive: 0.018
same,log2 fold change,nilotinib,inactive: 0.011
same,log2 fold change,[3],inactive: 0.027
same,log2 fold change,dasatinib,inactive: 0.007
same,log2 fold change,[4],inactive: 0.025
same,log2 fold change,[5],inactive: 0.005
same,log2 fold change,quisinostat,inactive: -0.051
same,log2 fold change,tipifarnib,inactive: 0.095
same,log2 fold change,[6],inactive: -0.002
same,log2 fold change,[7],inactive: -0.027
same,log2 fold change,[8],inactive: 0.004
TMEM35B (UniProt Q8NCS4),log2 fold change,lapatinib,inactive: -0.011
same,log2 fold change,crizotinib,inactive: -0.101
same,log2 fold change,doramapimod,inactive: -0.149
same,log2 fold change,quisinostat,inactive: 0.075
same,log2 fold change,[6],inactive: 0.12
same,log2 fold change,[7],inactive: -0.067
same,log2 fold change,[8],inactive: -0.06
TMX4 (UniProt Q9H1E5),log2 fold change,pictilisib,inactive: -0.028
same,log2 fold change,crizotinib,inactive: 0.002
same,log2 fold change,[1],inactive: -0.034
same,log2 fold change,duvelisib,inactive: 0.025
same,log2 fold change,gandotinib,inactive: -0.025
same,log2 fold change,tozasertib,inactive: -0.052
same,log2 fold change,doramapimod,inactive: -0.107
same,log2 fold change,bafetinib,inactive: -0.044
same,log2 fold change,[2],inactive: 0.134
same,log2 fold change,nilotinib,inactive: -0.187
same,log2 fold change,[3],inactive: -0.2
same,log2 fold change,dasatinib,inactive: -0.004
same,log2 fold change,[4],inactive: -0.092
same,log2 fold change,[5],inactive: 0.077
same,log2 fold change,quisinostat,inactive: 0.044
same,log2 fold change,tipifarnib,inactive: 0.088
same,log2 fold change,[6],inactive: -0.072
same,log2 fold change,[8],inactive: 0.024
TMEM273 isoform 2 (UniProt Q5T292),log2 fold change,pictilisib,inactive: -0.056
same,log2 fold change,crizotinib,inactive: -0.089
same,log2 fold change,doramapimod,inactive: 0.05
same,log2 fold change,bafetinib,inactive: -0.01
same,log2 fold change,quisinostat,inactive: -0.089
same,log2 fold change,[6],inactive: 0.026
same,log2 fold change,[8],inactive: -0.084
TMEM19 (UniProt Q96HH6),log2 fold change,lapatinib,inactive: -0.008
same,log2 fold change,crizotinib,inactive: 0.067
same,log2 fold change,tozasertib,inactive: 0.115
same,log2 fold change,doramapimod,inactive: 0.021
same,log2 fold change,quisinostat,inactive: 0.151
same,log2 fold change,[6],inactive: -0.013
same,log2 fold change,[7],inactive: 0.021
same,log2 fold change,[8],inactive: 0.057
TPRA1 (UniProt Q86W33),log2 fold change,lapatinib,inactive: 0.069
same,log2 fold change,crizotinib,inactive: -0.008
same,log2 fold change,[1],inactive: 0.224
same,log2 fold change,duvelisib,inactive: 0.103
same,log2 fold change,gandotinib,inactive: -0.007
same,log2 fold change,doramapimod,inactive: 0.016
same,log2 fold change,[2],inactive: -0.115
same,log2 fold change,dasatinib,inactive: 0.076
same,log2 fold change,[5],inactive: -0.012
same,log2 fold change,quisinostat,inactive: -0.068
same,log2 fold change,[6],inactive: 0.05
same,log2 fold change,[7],inactive: 0.066
same,log2 fold change,[8],inactive: 0.103
TPD52 isoform 3 (UniProt P55327),log2 fold change,lapatinib,inactive: 0.011
same,log2 fold change,tozasertib,inactive: 0.179
same,log2 fold change,[7],inactive: 0.062
same,log2 fold change,[8],inactive: -0.043
TMEM50A (UniProt O95807),log2 fold change,tozasertib,inactive: 0.237
TNK2 isoform 3 (UniProt Q07912),log2 fold change,pictilisib,inactive: -0.085
same,log2 fold change,crizotinib,inactive: 0.324
same,log2 fold change,[1],inactive: 0.049
same,log2 fold change,gandotinib,inactive: 0.138
same,log2 fold change,doramapimod,inactive: -0.029
same,log2 fold change,bafetinib,inactive: -0.38
same,log2 fold change,[2],inactive: 0.068
same,log2 fold change,quisinostat,inactive: -0.357
same,log2 fold change,[6],inactive: 0.465

# Nothing new here: an excerpt of the list.
target,measurement,setting,value
TMEM273 isoform 2 (UniProt Q5T292),log2 fold change,quisinostat,inactive: -0.089
same,log2 fold change,[6],inactive: 0.026
same,log2 fold change,[8],inactive: -0.084
TMEM19 (UniProt Q96HH6),log2 fold change,lapatinib,inactive: -0.008
same,log2 fold change,crizotinib,inactive: 0.067

# Reference: the supplement of paper PMC10849652
